SMILES strings stand for the structures.

The subject of this data set is universal monoclonal antibody against type I pyrethroid (hybridoma cell line QW8#). The experiment in a line: conventional indirect competitive ELISA. The data set is classed as binding, mouse. From the text:
To screen the target positive hybridoma cell line that is a highly specific and sensitive cell line against pyrethroid containing a diphenyl ether structure (by screening with etofenprox standard), the traditional two-step screening method was modified in this experiment. A gradient screening method was used in the indirect competitive ELISA screening process. (1) In the first step, an indirect non-competitive ELISA was used to screen the positive wells that recognized the diphenyl ether structure, but not the carrier protein (BSA). (2) In the second step, gradient screening was adopted for the indirect competitive ELISA; and the detection after the first subcloning was carried out by using 5 μg/mL etofenprox standard, the detection after the second subcloning was carried out by using 2 μg/mL etofenprox standard, and the detection after the third subcloning was carried out by using 1 μg/mL etofenprox standard. The positive wells with relatively small B/B0 were selected, where B is the absorbance in the control well […] etofenprox standard, and B0 is the absorbance in the wells with etofenprox standard. The cells were cloned by limiting dilution, and detected about 10 days after the cloning by using the same two-step method as described above. After repeated cloning for 2-3 times, the hybridoma cell line QW8# was obtained.
The affinity for QW8# was determined by indirect non-competitive ELISA. The plate was coated at 37° C. for 2 hours with Hapten-1-BSA at concentrations of 2.0, 1.0, 0.5, and 0.25 μg/mL in an amount of 100 μL/well. After the plate was blocked with a blocking solution for 1 hour, the antibody diluted with PBS (at a dilution factor of 1:2) was added to the plate and the rest steps were the same as those in indirect non-competitive ELISA. The OD450 values measured was used as the vertical coordinates, the values of the logarithm of the antibody concentrations (mol/L) were used as the horizontal coordinates, 4 S-shaped curves corresponding to the 4 concentrations were plotted. […]
In general terms: In an ELISA, binding on a coated surface is turned into a signal by an enzyme label.

`CCOc1ccc(C(C)(C)COCc2cccc(Oc3ccccc3)c2)cc1` [etofenprox] had a minimum detectable limit of 3.16 µg/L. As for `CC(C)=CC1C(C(=O)OCc2cccc(Oc3ccccc3)c2)C1(C)C` (stereo not drawn) [phenothrin], the figure is 4.27 µg/L. In turn, `CC1(C)C(C=C(Cl)Cl)C1C(=O)OCc1cccc(Oc2ccccc2)c1` (stereo not drawn) [permethrin] showed a minimum detectable limit of 3.72 µg/L.

These data come from patent US10809252B2, “Time-resolved fluorescent immunochromatographic assay rapid test kit for type I pyrethroid” (priority 2017, dated 2020).
